According to the supplement of paper PMC8024199:
± gives the standard deviation of the averaged measurements.

Experiments:
Assay in all cases: drug sensitivity score (DSS) (DSS score); higher = more sensitive (stronger growth inhibition); extreme values may be limits of the assay
[1] = system: Ba/F3 P210-BCR-ABL1 RUNX1-/- (mouse)
In short: (§1)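 Mouse Ba/F3 cells, either CRISPR/Cas9-edited at a target exon or edited-control clones, were screened against a 528-compound library on pre-printed 384-well plates. Each compound was tested at five concentrations across a 10,000-fold range, with 10,000 cells per well in RPMI with 10% FBS for 72 h at 37 °C and 5% CO2. CellTiter-Glo luminescence was scaled between vehicle and positive-control wells, and each dose-response was summarised as a drug sensitivity score. Scores were averaged over two replicates.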

[2] = system: Ba/F3 P210-BCR-ABL1 RUNX1-/mut (mouse)
In short: as §1

[3] = system: Ba/F3 P210-BCR-ABL1 RUNX1wt/wt control (mouse)
In short: as §1

In the case of `C[C@@H]1C[C@H](N)C[C@H](c2ccncc2NC(=O)c2ccc(F)c(-c3c(F)cccc3F)n2)C1` [PIM-447], the drug sensitivity score [1] is reported as 22.6 ± 2.5, the drug sensitivity score [2] is reported as 12.8 ± 4.7 and the drug sensitivity score [3] is reported as 5.75 ± 0.92.
